In publication PMC10286715:
Results are given in words; binding and its absence hold for the method and conditions named. Binding can be weak; no strength is given. Tags and fused reporters may be left off the sequences shown.

Target: T1, StrepTagII-protein S16-His10 (S. lividans) (UniProt O86868)
T1 sequence: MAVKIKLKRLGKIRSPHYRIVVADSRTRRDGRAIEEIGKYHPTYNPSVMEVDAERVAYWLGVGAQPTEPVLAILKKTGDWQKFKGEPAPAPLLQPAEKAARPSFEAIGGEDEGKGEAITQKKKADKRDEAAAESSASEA
Assay: pull-down; coelution assay: StrepTagII-protein S16-His10 (0.2 mg/mL) mixed with the SLP protein (SlpS-His6 0.1 mg/mL) in 20 mM HEPES-NaOH pH 7.4, 5 mM MgCl2, 150 mM NaCl, 10% glycerol, room temperature 15 min; captured on a streptavidin column, washed with PBS, eluted with 0.1 M glycine pH 2.5; Western blot (anti-His6, streptavidin-HRP); both purified

binding	Substance
binds	SlpS-His6 (S. lividans)
no binding	recombinant Slp5 (coelution assay) (S. lividans)
no binding	recombinant Slp7 (coelution assay) (S. lividans)
no binding	recombinant Slp8 (coelution assay) (S. lividans)
